# Article PMC1097722
# Sequences of proteins named here, by UniProt entry; tags and fusion partners are left off. Residues count along the entry.
# UniProt P04618: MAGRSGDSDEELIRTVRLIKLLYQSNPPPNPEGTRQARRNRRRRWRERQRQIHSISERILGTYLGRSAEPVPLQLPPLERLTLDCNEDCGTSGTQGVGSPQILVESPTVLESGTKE
# UniProt P67809, residues 186-324: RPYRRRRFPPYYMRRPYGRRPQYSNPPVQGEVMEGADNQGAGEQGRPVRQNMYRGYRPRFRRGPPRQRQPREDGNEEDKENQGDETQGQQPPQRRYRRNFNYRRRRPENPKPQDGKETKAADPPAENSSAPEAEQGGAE
# No constants are given. Whether binding was seen depends on the method and setting. Some entries that bind do so weakly or less than the wild type.
# Target: LexA-Rev bait (HIV-1 Rev, isolate HXB2, wild type) (HIV-1 isolate HXB2) (UniProt P04618)
# Assay: two-hybrid
substance,measurement,value
11.5.1 library prey (C-terminal 139 amino acids of human DNA binding protein B) (from UniProt P67809 186-324) (domain or fragment),binding,binds
